Each structure is given as a SMILES string. Several values for one entry are separate records, joined by “and”; a condition that tells them apart may be missing. Identical values can stand only once. The list shows a part of the results. Shown are side measurements of this screen, not its main read-out; they come without a call. Compounds called inactive in the main read-out are mostly missing here. The note in brackets gives the kind of curve behind each potency; many fits are weak.

The assay in a line: qHTS Assay to Find Inhibitors of Chronic Active B-Cell Receptor Signaling. The settings on record: ABC-DLBCL IkBa-CBG/CBR reporter, luminescence ratio (green luciferase fused to IkBa over red control in TMD8 lymphoma cells), 4 h; measured here: CBR red luminescence, cell number. In outline:
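Concentration-response series (up to 46 uM) were applied to TMD8 dual-reporter cells for 4 h at 37C with doxycycline. Green/red ratio, after filter-overlap correction, defined %Activity; red signal alone was normalised to basal cells and zero luminescence.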
(In general: In qHTS, concentration-response curves come from the screen itself.)
The AC50 is the midpoint of the concentration-response curve, whichever way the signal moves. Consider `COC(=O)c1c(NC(=S)NN2CCOCC2)sc2c1CCCC2`, for which the concentration at half-maximal activity (AC50) was 2.51 µM [rising, partial curve]. For `N#Cc1c(NC(=O)CCCC(=O)O)sc2c1CCCCC2`, the AC50 is 29.1 µM [falling, single point]. Next, `O=C(Nc1cccc(C(F)(F)F)c1)Nc1ccc(N2CCCC2)c(S(=O)(=O)Nc2ccccc2Cl)c1`: 4.11 µM [falling, full curve, poor fit]; `C=CCN(c1ccccc1OC)S(=O)(=O)c1ccc(Cl)c(C(=O)Nc2ccc(N3CCOCC3)cc2)c1`: 35.5 µM [falling, single point]. With `Cc1ccc(Nc2nc3ccccc3n3nnnc23)cc1` the figure was 3.16 µM [falling, partial curve, poor fit]; with `CCCCNC(=O)c1cnn2c(C)c(Cc3c(F)cccc3Cl)c(C)nc12`, 2.51 µM [falling, partial curve, poor fit]. Next, `Nc1ccc(C(=O)Nc2cccc(N)c2)cc1`: 1.26 µM [falling, full curve, poor fit]. Regarding `O=C(COC(=O)c1c2c(nc3ccccc13)CCCC2)Nc1ccc2c(c1)OCO2`, the AC50 was 14.1 µM [falling, single point]. With `COc1ccc(NC(=O)CN2C(=O)CSc3ccc(S(=O)(=O)N4CCCC4)cc32)cc1OC`, the AC50 is 22.4 µM [rising, single point]. With `N=C1C(c2nc3ccccc3s2)=C(O)CN1NC(=O)c1c[nH]c2ccccc12` the figure was 12.6 µM [falling, single point]; with `Cc1ccccc1Cn1c(CN2CCC(C(=O)NCCN(C)C)CC2)cc2ccccc21`, 10 µM [falling, partial curve, poor fit]; with `COc1ccc(Cl)cc1NC(=O)CN(C)C(=O)c1ccc2c(c1)CC(c1ccccc1)OC2=O` (stereo not given), 16.4 µM [falling, single point].

Consider `Fc1cccc(Nc2nc3ccccc3n3cnnc23)c1`, for which the AC50 was 3.16 µM [rising, partial curve, poor fit]. With `Cc1ccn2c(C(=O)N/N=C/c3ccc(CNC(=O)C(=O)Nc4ccc(C)c(C)c4)o3)c(C)nc2c1` the figure was 7.31 µM [falling, partial curve].

`Cc1cccc(N2CCN(C(=O)CCSCc3ccccc3F)CC2)c1C`: the half-maximal activity concentration (AC50) was 6.31 µM [rising, single point]. Take `CCCC(=O)N(CCN(Cc1ccccc1)C(=O)CCC)Cc1ccccc1`: the half-maximal activity concentration (AC50) was 35.5 µM [falling, single point]. Next, `CCOc1cccc(C(=O)NC(=S)Nc2ccc(Cl)cc2C(=O)O)c1`: 3.98 µM [falling, partial curve]; `CN(C)S(=O)(=O)N(CC(=O)Nc1ccc(S(=O)(=O)N2CCCC2)cc1)c1ccccc1`: 6.31 µM [rising, single point]; `COc1cccc(CCNC(=O)c2ccc(C#N)cc2)c1`: 0.501 µM [rising, partial curve, poor fit]. Consider `Cn1ncc2c(NNC(=O)c3ccc(O)cc3)ncnc21`, for which the concentration at half-maximal activity (AC50) is 10 µM [falling, partial curve].

For `O=C(CCCOc1ccccc1)N1CCc2ccccc2C1`, the half-maximal activity concentration (AC50) was 1.46 µM [rising, full curve, poor fit].

Turning to `O=c1cc[nH]c2c1ccc1cccnc12`, the AC50 is 29.1 µM [falling, single point]. Next, `CN(C)S(=O)(=O)c1ccc(C(=O)Nc2ccc(-n3nncc3-c3ccccc3)cc2)cc1`: 3.55 µM [rising, single point]. Next, `Cc1c(Br)c([N+](=O)[O-])nn1CC(=O)Nc1ccc2nc3n(c(=O)c2c1)CCCC3`: 35.5 µM [falling, single point]. As to `CN(C)S(=O)(=O)c1cccc(C(=O)Nc2cc(Cl)ccc2O)c1`, the concentration at half-maximal activity (AC50) is 1 µM [rising, full curve, poor fit]. For `CC(C)(C)OC(=O)N1CCC(c2c(C(=O)NCC3CCN(C4CCCC4)C3)cnn2-c2cccc(Cl)c2)CC1` (stereo not given), the half-maximal activity concentration (AC50) is 11.2 µM [falling, partial curve, poor fit]. Next, `O=[N+]([O-])c1ccc(Oc2ccc(C(F)(F)F)cn2)cc1`: 17.8 µM [rising, single point]; `CCN(CC(=O)Nc1c(F)cccc1F)C(=O)c1ccc(-c2ccccc2)cc1`: 0.651 µM [falling, full curve]. With `O=C(N/N=C/c1ccc(O)cc1)c1ccc(COc2cc(Cl)ccc2Cl)o1`, the AC50 was 7.08 µM [falling, full curve].

As to `Cc1c(N/C=C/C(=O)c2ccc(Cl)cc2)c(=O)n(-c2ccccc2)n1C`, the half-maximal activity concentration (AC50) is 9.2 µM [falling, partial curve]. As for `O=C(N/N=C/c1ccc(-c2cccc(C(F)(F)F)c2)o1)c1ccccc1O`, the AC50 was 14.6 µM [falling, partial curve, poor fit].

For `CCC(=O)NCCc1nc2cc(NC(=O)c3ccc(Cl)cc3)ccc2n1C`, the AC50 was 10 µM [falling, partial curve, poor fit]. `COC(=O)c1ccc(COc2cc(O)c3c(c2)OC(C)(C)CC3=O)cc1`: the half-maximal activity concentration (AC50) is 15.8 µM [rising, partial curve, poor fit]. With `COCCNC(=O)[C@@H]1CCCN1S(=O)(=O)c1cccc2cccnc12`, the AC50 is 18.4 µM [rising, partial curve, poor fit]. Next, `CCOC(=O)c1cnc2ccc(OCC)cc2c1N1CCN(c2ccccc2OC)CC1`: 29.1 µM [falling, single point]; `N=c1n(CCN2CCCCC2)c2ccccc2n1CC(O)c1cccc(Br)c1` (stereo not given): 12.6 µM [falling, partial curve]; `CC1=C(C#N)C(/C=N/OCc2ccc(F)cc2Cl)CC(=O)N1` (stereo not given): 12.6 µM [rising, partial curve, poor fit]. For `COC(=O)c1ccc(C(=O)N=c2sccn2C)cc1`, the concentration at half-maximal activity (AC50) is 5.01 µM [falling, partial curve]. For the compound `C/C(=N\NC(=O)c1cc(Br)ccc1O)c1ccccn1`, the half-maximal activity concentration (AC50) was 0.562 µM [falling, full curve].

On to `Clc1ccccc1-c1ccc2ncnc(NCc3ccc4c(c3)OCO4)c2c1`, for which the half-maximal activity concentration (AC50) is 32.6 µM [falling, single point] and 16.4 µM [falling, single point].

(Values after PubChem BioAssay AID493014 (National Center for Advancing Translational Sciences (NCATS), 2011).)
